Measurements as given in patent publication US20230303685A1.
Results are given in words; binding and its absence hold for the method and conditions named. Some binding calls cover weakened binding; strength is not graded here. Values belong to the binder of their own block, whether it stands above or below them.

Experiments:
[1] = biological target: cynomolgus monkey SIRPα extracellular domain, monomeric (cynomolgus monkey); experiment: ELISA, extracellular domain coated at 1 µg/mL, hybridoma supernatant diluted 1:5, anti-rat or anti-mouse IgG, chemiluminescence
[2] = biological target: cynomolgus monkey SIRPα extracellular domain, monomeric (cynomolgus monkey); experiment: ELISA, extracellular domain coated at 2 µg/mL, purified antibody titrated, anti-rat or anti-mouse IgG, chemiluminescence
[3] = biological target: cynomolgus monkey SIRPα extracellular domain, monomeric (cynomolgus monkey); experiment: ELISA, extracellular domain coated at 1 µg/mL, purified antibody titrated, anti-rat IgG, chemiluminescence
[4] = biological target: cynomolgus monkey SIRPα extracellular domain, monomeric (cynomolgus monkey); experiment: ELISA, extracellular domain coated at 1 µg/mL, purified antibody titrated, anti-human IgG, chemiluminescence
[5] = biological target: cynomolgus monkey SIRPα extracellular domain, monomeric (cynomolgus monkey); experiment: ELISA, extracellular domain coated at 2 µg/mL, purified antibody titrated, anti-human IgG, chemiluminescence

binding [1]: binds
binding [2]: binds
binding [3]: binds
B1: Antibody 11 (antibody, V domains shown)
VH: EVQLVESGGGLVQPGGSLRLSCAASGFTFSSYWMHWVRQAPGKGLVWVSRIHNDGSRTSYADSVKGRFTISRDNAKNTLYLQMSSLRAEDTAVYYCTRDPPPYDILTGYPFDYWGQGTLVTVSS
VL: DIQMTQSPSSVSASVGDRVTITCRASQDISSWLAWFQQKPGKAPKLLIYGASSLQSGVPSRFSGSGSGTDFTLTISSLQPEDFATYYCQEANSFPYTFGQGTKLEIK

binding [4]: binds
B2: Antibody 23 (antibody, V domains shown)
VH: QVQLQESGPGLVKPSGTLSLTCAVSGGSISSSNWWSWVRQPPGKGLEWIGEIYHSGSTNYNPSLKSRVTISVDKSKNQFSLKLSSVTAADTAVYYCARRGIWFGVGPWGQGTLVTVSS
VL: DIVMTQSPLSLPVTPGEPASISCRSSQSLLHGNGFNYLDWYLQKPGQSPQLLIYLGSNRASGVPDRFTGSGSGTDFTLKISRVEAEDVGVYYCMQGLQTPRTFGQGTKVEIK

binding [1]: binds
binding [2]: binds
binding [3]: binds
B3: Antibody 1 (antibody, V domains shown)
VH: B2 VH
VL: B2 VL

binding [5]: binds
binding [4]: binds
B4: Antibody 28 (antibody, V domains shown)
VH: B2 VH
VL: B2 VL

binding [1]: binds
binding [2]: binds
B5: Antibody 15 (antibody, V domains shown)
VH: QIQLVQSGPELKKPGETVKISCKGSGYTFRNFGMNWVKQAPGMGLKWMVWIDTNTGEPTYAEEFKGRFAFSLETSASTAYLQINNLKNEDTATYFCARSRGNYFAMEYWGQGTSVTVSS
VL: DIKMTQSPSSMYASLGERVTVTCKASQDINRYLSWFQQKPGKSPKTLIYRANRLVDGVPSRFSGSGSGQDYSLTISSLEYEDMGFYYCLQYDEFPFTFGSGTKLEIK

binding [1]: binds
binding [2]: binds
B6: Antibody 10 (antibody, V domains shown)
VH: EVQLLESGGGLVQPGGSLRLSCAASGFTFSSYAMSWVRQAPGKGLEWVSAISGSGGDTYYADSVKGRFTISRDNSKSTLYLQMNSLRAEDTAVYYCAKDGGSYYPPFDYWGQGTLVTVSS
VL: SYELTQPPSVSVSPGQTASITCSGDKLGDRYACWYQQKPGQSPVLVIYQDTKRPSGIPERFSGSNSGNTATLTISGTQAMDEADYYCQACDSSTAVFGGGTKLTVL

binding [1]: binds
binding [2]: binds
B7: Antibody 8 (antibody, V domains shown)
VH: QVQLQQWGAGLLKPSETLSLTCAVYGGSFSGYYWSWIRQPPGKGLEWIGEINHSGSTNFNPSLKSRVTISVDTSKNQFSLKLRSVTAADTAVYYCSRVDSGSYPYYDGLDVWGQGTTVTVSS
VL: SSELTQPPSVSVSPGQTASITCSGDKLGDKYVYWYQQKPGQSPVLVIYHDDRRPAGIPERFAGSASGNTATLTISGTQAMDEADYYCQTWDSSTVVFGGGTKLTVL
